Test results taken from article doi:10.1101/2024.01.03.574021.

The chains behind the UniProt entries cited, without tags or fusion partners.
UniProt Q04206: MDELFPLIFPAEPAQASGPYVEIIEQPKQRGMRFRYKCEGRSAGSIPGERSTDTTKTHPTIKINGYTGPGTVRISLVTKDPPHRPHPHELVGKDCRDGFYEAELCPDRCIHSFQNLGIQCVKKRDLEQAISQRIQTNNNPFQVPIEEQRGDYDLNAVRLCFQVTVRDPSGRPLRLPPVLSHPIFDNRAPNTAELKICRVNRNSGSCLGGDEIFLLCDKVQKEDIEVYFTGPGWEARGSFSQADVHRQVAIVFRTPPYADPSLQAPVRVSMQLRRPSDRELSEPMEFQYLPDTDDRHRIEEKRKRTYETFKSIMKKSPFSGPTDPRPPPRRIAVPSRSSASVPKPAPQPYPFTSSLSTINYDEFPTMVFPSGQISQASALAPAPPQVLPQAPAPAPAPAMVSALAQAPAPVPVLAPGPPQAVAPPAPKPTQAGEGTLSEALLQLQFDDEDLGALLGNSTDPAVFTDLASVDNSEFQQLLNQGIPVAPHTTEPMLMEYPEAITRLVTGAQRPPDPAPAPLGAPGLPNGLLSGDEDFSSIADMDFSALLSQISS
UniProt P51617: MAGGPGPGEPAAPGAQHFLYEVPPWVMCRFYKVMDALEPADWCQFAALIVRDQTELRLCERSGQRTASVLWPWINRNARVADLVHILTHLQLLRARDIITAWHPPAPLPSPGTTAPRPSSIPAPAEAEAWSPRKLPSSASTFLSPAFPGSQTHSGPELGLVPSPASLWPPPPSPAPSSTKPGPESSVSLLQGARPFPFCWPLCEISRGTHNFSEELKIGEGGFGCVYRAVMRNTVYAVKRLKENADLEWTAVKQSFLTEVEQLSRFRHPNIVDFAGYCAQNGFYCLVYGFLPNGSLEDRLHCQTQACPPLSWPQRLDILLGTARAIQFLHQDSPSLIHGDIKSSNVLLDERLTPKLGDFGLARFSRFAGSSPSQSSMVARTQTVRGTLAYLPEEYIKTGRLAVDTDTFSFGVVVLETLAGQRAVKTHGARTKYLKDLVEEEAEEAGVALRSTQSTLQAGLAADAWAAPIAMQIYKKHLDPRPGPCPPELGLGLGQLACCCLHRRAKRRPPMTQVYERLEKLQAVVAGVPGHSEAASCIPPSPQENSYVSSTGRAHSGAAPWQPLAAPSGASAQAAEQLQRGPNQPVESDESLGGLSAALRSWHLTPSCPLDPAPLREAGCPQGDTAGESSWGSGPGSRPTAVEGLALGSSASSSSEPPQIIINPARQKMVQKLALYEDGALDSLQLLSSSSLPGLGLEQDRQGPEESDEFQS
UniProt Q92769: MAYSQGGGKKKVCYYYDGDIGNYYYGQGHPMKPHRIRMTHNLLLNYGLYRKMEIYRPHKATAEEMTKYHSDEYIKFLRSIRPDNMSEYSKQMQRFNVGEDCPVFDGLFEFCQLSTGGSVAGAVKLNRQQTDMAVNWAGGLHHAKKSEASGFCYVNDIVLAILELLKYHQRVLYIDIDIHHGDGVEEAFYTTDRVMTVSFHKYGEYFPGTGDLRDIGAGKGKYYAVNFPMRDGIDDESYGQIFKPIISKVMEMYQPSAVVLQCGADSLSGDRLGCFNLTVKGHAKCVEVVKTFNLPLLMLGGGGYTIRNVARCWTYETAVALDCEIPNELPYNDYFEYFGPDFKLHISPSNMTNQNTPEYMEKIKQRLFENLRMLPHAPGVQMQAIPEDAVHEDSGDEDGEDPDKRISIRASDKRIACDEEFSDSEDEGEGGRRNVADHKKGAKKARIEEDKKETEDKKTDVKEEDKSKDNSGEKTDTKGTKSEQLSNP
UniProt P19532: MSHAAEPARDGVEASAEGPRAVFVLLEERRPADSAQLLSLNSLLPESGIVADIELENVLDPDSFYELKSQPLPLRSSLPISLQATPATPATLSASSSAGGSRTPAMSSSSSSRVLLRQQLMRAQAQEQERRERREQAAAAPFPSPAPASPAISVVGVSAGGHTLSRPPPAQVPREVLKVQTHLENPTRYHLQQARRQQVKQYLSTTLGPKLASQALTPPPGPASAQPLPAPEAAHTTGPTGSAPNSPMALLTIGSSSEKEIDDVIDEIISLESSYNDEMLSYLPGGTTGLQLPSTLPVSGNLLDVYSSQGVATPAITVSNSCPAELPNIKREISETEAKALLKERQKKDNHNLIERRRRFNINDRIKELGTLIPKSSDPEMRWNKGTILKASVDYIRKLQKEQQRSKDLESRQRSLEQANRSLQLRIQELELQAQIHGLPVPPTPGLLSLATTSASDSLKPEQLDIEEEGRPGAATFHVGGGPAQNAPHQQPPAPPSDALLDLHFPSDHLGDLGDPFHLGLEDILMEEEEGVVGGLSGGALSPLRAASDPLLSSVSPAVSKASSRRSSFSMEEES
UniProt Q92782: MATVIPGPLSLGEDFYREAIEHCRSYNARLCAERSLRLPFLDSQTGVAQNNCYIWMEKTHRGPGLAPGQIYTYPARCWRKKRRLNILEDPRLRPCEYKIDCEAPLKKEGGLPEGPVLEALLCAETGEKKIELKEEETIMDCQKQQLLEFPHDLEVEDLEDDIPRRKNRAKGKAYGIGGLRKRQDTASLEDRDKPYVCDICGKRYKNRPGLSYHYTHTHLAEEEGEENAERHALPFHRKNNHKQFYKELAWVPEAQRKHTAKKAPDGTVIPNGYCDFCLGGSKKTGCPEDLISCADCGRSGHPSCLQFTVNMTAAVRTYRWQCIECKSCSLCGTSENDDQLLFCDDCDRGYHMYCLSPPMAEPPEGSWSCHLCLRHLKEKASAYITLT
UniProt P49715: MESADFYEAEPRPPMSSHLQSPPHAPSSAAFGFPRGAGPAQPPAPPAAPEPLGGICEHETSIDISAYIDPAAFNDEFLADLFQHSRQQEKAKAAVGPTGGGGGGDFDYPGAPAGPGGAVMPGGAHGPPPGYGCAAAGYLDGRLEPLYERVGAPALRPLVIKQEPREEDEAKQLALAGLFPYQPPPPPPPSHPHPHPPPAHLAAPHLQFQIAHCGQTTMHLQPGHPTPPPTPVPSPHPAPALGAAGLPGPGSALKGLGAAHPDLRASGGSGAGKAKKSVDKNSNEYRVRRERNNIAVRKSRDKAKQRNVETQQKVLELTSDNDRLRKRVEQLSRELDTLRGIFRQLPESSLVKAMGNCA
UniProt Q92993: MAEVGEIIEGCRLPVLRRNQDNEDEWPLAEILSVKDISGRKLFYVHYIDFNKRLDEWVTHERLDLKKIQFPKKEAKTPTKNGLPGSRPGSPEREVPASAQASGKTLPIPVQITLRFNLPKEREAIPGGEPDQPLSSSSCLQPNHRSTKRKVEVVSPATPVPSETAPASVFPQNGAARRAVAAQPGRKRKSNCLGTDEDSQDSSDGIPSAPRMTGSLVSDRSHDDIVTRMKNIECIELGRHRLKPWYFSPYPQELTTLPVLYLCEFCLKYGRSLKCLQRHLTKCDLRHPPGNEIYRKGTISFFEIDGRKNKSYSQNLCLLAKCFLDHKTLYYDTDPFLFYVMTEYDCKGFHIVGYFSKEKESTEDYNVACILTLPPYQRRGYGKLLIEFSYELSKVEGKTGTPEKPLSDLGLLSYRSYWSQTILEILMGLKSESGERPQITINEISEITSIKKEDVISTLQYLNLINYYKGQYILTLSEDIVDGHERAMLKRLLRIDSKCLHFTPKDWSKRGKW
UniProt Q13547: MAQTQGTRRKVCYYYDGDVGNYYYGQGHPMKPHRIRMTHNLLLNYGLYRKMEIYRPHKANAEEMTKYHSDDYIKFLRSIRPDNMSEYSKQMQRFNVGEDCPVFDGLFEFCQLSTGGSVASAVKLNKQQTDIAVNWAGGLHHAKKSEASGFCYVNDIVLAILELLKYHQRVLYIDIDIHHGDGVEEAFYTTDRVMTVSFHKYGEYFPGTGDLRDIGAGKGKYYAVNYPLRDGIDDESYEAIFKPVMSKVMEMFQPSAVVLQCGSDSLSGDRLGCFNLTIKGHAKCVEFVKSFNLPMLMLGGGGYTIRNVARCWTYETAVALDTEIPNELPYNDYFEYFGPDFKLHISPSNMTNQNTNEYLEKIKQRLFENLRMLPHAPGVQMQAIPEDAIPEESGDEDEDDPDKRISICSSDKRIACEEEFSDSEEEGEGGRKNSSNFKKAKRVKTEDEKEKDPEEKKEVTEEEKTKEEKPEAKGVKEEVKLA
UniProt P05412: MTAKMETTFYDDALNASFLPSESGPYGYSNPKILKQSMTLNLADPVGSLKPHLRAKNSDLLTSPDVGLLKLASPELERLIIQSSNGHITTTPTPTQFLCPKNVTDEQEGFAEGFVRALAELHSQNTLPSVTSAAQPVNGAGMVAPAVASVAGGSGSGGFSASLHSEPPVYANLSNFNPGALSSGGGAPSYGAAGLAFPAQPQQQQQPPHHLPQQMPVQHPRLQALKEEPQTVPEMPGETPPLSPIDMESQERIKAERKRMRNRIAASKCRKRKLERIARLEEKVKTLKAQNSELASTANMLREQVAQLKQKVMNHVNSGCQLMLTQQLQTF
UniProt Q92830: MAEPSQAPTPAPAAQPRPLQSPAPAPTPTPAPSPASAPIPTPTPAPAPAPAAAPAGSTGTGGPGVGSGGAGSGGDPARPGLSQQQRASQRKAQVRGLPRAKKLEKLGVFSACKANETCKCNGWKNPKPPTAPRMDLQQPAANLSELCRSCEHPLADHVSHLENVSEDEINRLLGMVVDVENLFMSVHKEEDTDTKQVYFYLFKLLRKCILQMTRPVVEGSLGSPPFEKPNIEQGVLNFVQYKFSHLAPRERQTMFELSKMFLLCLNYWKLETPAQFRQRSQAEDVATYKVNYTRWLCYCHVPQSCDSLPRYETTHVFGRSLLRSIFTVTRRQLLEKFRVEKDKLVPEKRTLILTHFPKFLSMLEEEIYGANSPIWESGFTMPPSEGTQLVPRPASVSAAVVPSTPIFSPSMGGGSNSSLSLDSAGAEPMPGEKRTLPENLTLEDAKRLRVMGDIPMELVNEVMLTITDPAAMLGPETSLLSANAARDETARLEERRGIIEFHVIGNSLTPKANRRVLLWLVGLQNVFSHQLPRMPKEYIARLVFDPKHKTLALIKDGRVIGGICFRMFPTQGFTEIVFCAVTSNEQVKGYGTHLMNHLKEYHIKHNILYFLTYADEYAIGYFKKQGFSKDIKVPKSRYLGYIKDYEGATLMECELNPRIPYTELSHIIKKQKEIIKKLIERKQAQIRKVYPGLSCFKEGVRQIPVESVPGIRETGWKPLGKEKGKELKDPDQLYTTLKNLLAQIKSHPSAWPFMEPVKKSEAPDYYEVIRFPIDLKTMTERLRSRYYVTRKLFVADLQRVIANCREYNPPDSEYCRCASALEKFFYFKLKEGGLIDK
UniProt Q9BTK6: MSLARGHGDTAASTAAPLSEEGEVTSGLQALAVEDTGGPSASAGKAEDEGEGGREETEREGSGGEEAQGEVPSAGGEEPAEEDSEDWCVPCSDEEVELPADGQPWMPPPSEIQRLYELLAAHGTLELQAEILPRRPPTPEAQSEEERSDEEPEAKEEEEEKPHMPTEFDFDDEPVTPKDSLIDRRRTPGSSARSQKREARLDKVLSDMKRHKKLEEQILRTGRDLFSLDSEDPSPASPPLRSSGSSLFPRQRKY
UniProt Q92785: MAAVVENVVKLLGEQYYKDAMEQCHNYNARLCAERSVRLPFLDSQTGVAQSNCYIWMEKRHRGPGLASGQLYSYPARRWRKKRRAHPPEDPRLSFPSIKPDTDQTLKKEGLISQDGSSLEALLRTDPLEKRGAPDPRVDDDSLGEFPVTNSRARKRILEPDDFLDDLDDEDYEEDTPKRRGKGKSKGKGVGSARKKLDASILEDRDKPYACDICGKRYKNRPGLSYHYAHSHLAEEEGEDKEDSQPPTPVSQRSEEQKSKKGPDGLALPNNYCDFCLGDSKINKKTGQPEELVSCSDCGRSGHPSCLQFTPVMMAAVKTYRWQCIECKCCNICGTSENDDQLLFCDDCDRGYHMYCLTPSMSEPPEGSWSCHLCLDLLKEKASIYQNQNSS
UniProt O95365: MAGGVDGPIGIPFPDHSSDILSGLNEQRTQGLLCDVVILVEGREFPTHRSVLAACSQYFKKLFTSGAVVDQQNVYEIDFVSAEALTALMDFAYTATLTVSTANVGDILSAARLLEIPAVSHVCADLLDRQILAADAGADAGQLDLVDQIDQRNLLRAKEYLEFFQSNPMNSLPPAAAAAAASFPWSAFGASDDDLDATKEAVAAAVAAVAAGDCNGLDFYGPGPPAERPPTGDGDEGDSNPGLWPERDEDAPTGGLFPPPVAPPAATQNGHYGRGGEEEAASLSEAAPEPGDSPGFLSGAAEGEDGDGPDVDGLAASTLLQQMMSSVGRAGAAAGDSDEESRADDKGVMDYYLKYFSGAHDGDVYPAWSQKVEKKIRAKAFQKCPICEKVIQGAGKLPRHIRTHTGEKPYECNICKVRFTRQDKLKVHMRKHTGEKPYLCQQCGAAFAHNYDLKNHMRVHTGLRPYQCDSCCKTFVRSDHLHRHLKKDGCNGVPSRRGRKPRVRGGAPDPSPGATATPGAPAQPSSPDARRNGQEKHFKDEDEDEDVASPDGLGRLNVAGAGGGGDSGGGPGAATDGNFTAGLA

What follows are molecules tested against p65(wt)-HA-miniTurbo (human) (UniProt Q04206) (assay: proximity labelling).

Row | Molecule | binding
1 | ATF2 (protein, UniProt P15336 1-505) MKFKLHVNSARQYKDLWNMSDDKPFLCTAPGCGQRFTNEDHLAVHKHKHEMTLKFGPARNDSVIVADQTPTPTRFLKNCEEVGLFNELASPFENEFKKASEDDIKKMPLDLSPLATPIIRSKIEEPSVVETTHQDSPLPHPESTTSDEKEVPLAQTAQPTSAIVRPASLQVPNVLLTSSDSSVIIQQAVPSPTSSTVITQAPSSNRPIVPVPGPFPLLLHLPNGQTMPVAIPASITSSNVHVPAAVPLVRPVTMVPSVPGIPGPSSPQPVQSEAKMRLKAALTQQHPPVTNGDTVKGHGSGLVRTQSEESRPQSLQQPATSTTETPASPAHTTPQTQSTSGRRRRAANEDPDEKRRKFLERNRAAASRCRQKRKVWVQSLEKKAEDLSSLNGQLQSEVTLLRNEVAQLKQLLLAHKDCPVTAMQKKSGYHTADKDDSSEDISVPSSPHTEAIQHSSVSTSNGVSSTSKAEAVATSVLTQMADQSTEPALSQIVMAPSSQSQPSGS | binds
2 | S100A9 (protein, UniProt P06702 1-114) MTCKMSQLERNIETIINTFHQYSVKLGHPDTLNQGEFKELVRKDLQNFLKKENKNEKVIEHIMEDLDTNADKQLSFEEFIMLMARLTWASHEKMHEGDEGPGHHHKPGLGEGTP | binds
3 | Zinc finger protein GLI-similar 2 (GLIS2) (protein, UniProt Q9BZE0 1-524) MHSLDEPLDLKLSITKLRAAREKRERTLGVVRPRALHRELGLVDDSPTPGSPGSPPSGFLLNSKFPEKVEGRFSAAPLVDLSLSPPSGLDSPNGSSSLSPERQGNGDLPPVPSASDFQPLRYLDGVPSSFQFFLPLGSGGALHLPASSFLTPPKDKCLSPDLPLPKQLVCRWAKCNQLFELLQDLVDHVNDYHVKPEKDAGYCCHWEGCARHGRGFNARYKMLIHIRTHTNEKPHRCPTCSKSFSRLENLKIHNRSHTGEKPYVCPYEGCNKRYSNSSDRFKHTRTHYVDKPYYCKMPGCHKRYTDPSSLRKHIKAHGHFVSHEQQELLQLRPPPKPPLPAPDGGPYVSGAQIIIPNPAALFGGPGLPGLPLPLAPGPLDLSALACGNGGGSGGGGGMGPGLPGPVLPLNLAKNPLLPSPFGAGGLGLPVVSLLAGAAGGKAEGEKGRGSVPTRALGMEGHKTPLERTESSCSRPSPDGLPLLPGTVLDLSTGVNSAASSPEALAPGWVVIPPGSVLLKPAVVN | binds
4 | p52 (NFKB2) (protein, UniProt Q00653) MESCYNPGLDGIIEYDDFKLNSSIVEPKEPAPETADGPYLVIVEQPKQRGFRFRYGCEGPSHGGLPGASSEKGRKTYPTVKICNYEGPAKIEVDLVTHSDPPRAHAHSLVGKQCSELGICAVSVGPKDMTAQFNNLGVLHVTKKNMMGTMIQKLQRQRLRSRPQGLTEAEQRELEQEAKELKKVMDLSIVRLRFSAFLRASDGSFSLPLKPVISQPIHDSKSPGASNLKISRMDKTAGSVRGGDEVYLLCDKVQKDDIEVRFYEDDENGWQAFGDFSPTDVHKQYAIVFRTPPYHKMKIERPVTVFLQLKRKRGGDVSDSKQFTYYPLVEDKEEVQRKRRKALPTFSQPFGGGSHMGGGSGGAAGGYGGAGGGGSLGFFPSSLAYSPYQSGAGPMGCYPGGGGGAQMAATVPSRDSGEEAAEPSAPSRTPQCEPQAPEMLQRAREYNARLFGLA | binds
5 | S100A8 (protein, UniProt P05109 1-93) MLTELEKALNSIIDVYHKYSLIKGNFHAVYRDDLKKLLETECPQYIRKKGADVWFKELDINTDGAVNFQEFLILVIKMGVAAHKKSHEESHKE | binds
6 | zinc finger and BTB domain containing 5 (ZBTB5) (protein, UniProt O15062 1-677) MDFPGHFEQIFQQLNYQRLHGQLCDCVIVVGNRHFKAHRSVLAACSTHFRALFSVAEGDQTMNMIQLDSEVVTAEAFAALIDMMYTSTLMLGESNVMDVLLAASHLHLNSVVKACKHYLTTRTLPMSPPSERVQEQSARMQRSFMLQQLGLSIVSSALNSSQNGEEQPAPMSSSMRSNLDQRTPFPMRRLHKRKQSAEERARQRLRPSIDESAISDVTPENGPSGVHSREEFFSPDSLKIVDNPKADGMTDNQEDSAIMFDQSFGTQEDAQVPSQSDNSAGNMAQLSMASRATQVETSFDQEAAPEKSSFQCENPEVGLGEKEHMRVVVKSEPLSSPEPQDEVSDVTSQAEGSESVEVEGVVVSAEKIDLSPESSDRSFSDPQSSTDRVGDIHILEVTNNLEHKSTFSISNFLNKSRGNNFTANQNNDDNIPNTTSDCRLESEAPYLLSPEAGPAGGPSSAPGSHVENPFSEPADSHFVRPMQEVMGLPCVQTSGYQGGEQFGMDFSRSGLGLHSSFSRVMIGSPRGGASNFPYYRRIAPKMPVVTSVRSSQIPENSTSSQLMMNGATSSFENGHPSQPGPPQLTRASADVLSKCKKALSEHNVLVVEGARKYACKICCKTFLTLTDCKKHIRVHTGEKPYACLKCGKRFSQSSHLYKHSKTTCLRWQSSNLPSTLL | binds
7 | GLIS1 (protein, UniProt Q8NBF1 1-620) MAEARTSLSAHCRGPLATGLHPDLDLPGRSLATPAPSCYLLGSEPSSGLGLQPETHLPEGSLKRCCVLGLPPTSPASSSPCASSDVTSIIRSSQTSLVTCVNGLRSPPLTGDLGGPSKRARPGPASTDSHEGSLQLEACRKASFLKQEPADEFSELFGPHQQGLPPPYPLSQLPPGPSLGGLGLGLAGRVVAGRQACRWVDCCAAYEQQEELVRHIEKSHIDQRKGEDFTCFWAGCVRRYKPFNARYKLLIHMRVHSGEKPNKCMFEGCSKAFSRLENLKIHLRSHTGEKPYLCQHPGCQKAFSNSSDRAKHQRTHLDTKPYACQIPGCSKRYTDPSSLRKHVKAHSAKEQQVRKKLHAGPDTEADVLTECLVLQQLHTSTQLAASDGKGGCGLGQELLPGVYPGSITPHNGLASGLLPPAHDVPSRHHPLDATTSSHHHLSPLPMAESTRDGLGPGLLSPIVSPLKGLGPPPLPPSSQSHSPGGQPFPTLPSKPSYPPFQSPPPPPLPSPQGYQGSFHSIQSCFPYGDCYRMAEPAAGGDGLVGETHGFNPLRPNGYHSLSTPLPATGYEALAEASCPTALPQQPSEDVVSSGPEDCGFFPNGAFDHCLGHIPSIYTDT | binds
8 | FOSL2 (protein, UniProt P15408 1-326) MYQDYPGNFDTSSRGSSGSPAHAESYSSGGGGQQKFRVDMPGSGSAFIPTINAITTSQDLQWMVQPTVITSMSNPYPRSHPYSPLPGLASVPGHMALPRPGVIKTIGTTVGRRRRDEQLSPEEEEKRRIRRERNKLAAAKCRNRRRELTEKLQAETEELEEEKSGLQKEIAELQKEKEKLEFMLVAHGPVCKISPEERRSPPAPGLQPMRSGGGSVGAVVVKQEPLEEDSPSSSSAGLDKAQRSVIKPISIAGGFYGEEPLHTPIVVTSTPAVTPGTSNLVFTYPSVLEQESPASPSESCSKAHRRSSSSGDQSSDSLNSPTLLAL | binds
9 | ATF3 (protein, UniProt P18847 1-181) MMLQHPGQVSASEVSASAIVPCLSPPGSLVFEDFANLTPFVKEELRFAIQNKHLCHRMSSALESVTVSDRPLGVSITKAEVAPEEDERKKRRRERNKIAAAKCRNKKKEKTECLQKESEKLESVNAELKAQIEELKNEKQHLIYMLNLHRPTCIVRAQNGRTPEDERNLFIQQIKEGTLQS | binds
10 | GLIS3 (protein, UniProt Q8NEA6 1-775) MMVQRLGLISPPASQVSTACNQISPSLQRAMNAANLNIPPSDTRSLISRESLASTTLSLTESQSASSMKQEWSQGYRALPSLSNHGSQNGLDLGDLLSLPPGTSMSSNSVSNSLPSYLFGTESSHSPYPSPRHSSTRSHSARSKKRALSLSPLSDGIGIDFNTIIRTSPTSLVAYINGSRASPANLSPQPEVYGHFLGVRGSCIPQPRPVPGSQKGVLVAPGGLALPAYGEDGALEHERMQQLEHGGLQPGLVNHMVVQHGLPGPDSQSAGLFKTERLEEFPGSTVDLPPAPPLPPLPPPPGPPPPYHAHAHLHHPELGPHAQQLALPQATLDDDGEMDGIGGKHCCRWIDCSALYDQQEELVRHIEKVHIDQRKGEDFTCFWAGCPRRYKPFNARYKLLIHMRVHSGEKPNKCTFEGCEKAFSRLENLKIHLRSHTGEKPYLCQHPGCQKAFSNSSDRAKHQRTHLDTKPYACQIPGCTKRYTDPSSLRKHVKAHSSKEQQARKKLRSSTELHPDLLTDCLTVQSLQPATSPRDAAAEGTVGRSPGPGPDLYSAPIFSSNYSSRSGTAAGAVPPPHPVSHPSPGHNVQGSPHNPSSQLPPLTAVDAGAERFAPSAPSPHHISPRRVPAPSSILQRTQPPYTQQPSGSHLKSYQPETNSSFQPNGIHVHGFYGQLQKFCPPHYPDSQRIVPPVSSCSVVPSFEDCLVPTSMGQASFDVFHRAFSTHSGITVYDLPSSSSSLFGESLRSGAEDATFLQISTVDRCPSQLSSVYTEG | binds
11 | ATF1 (protein, UniProt P18846 1-271) MEDSHKSTTSETAPQPGSAVQGAHISHIAQQVSSLSESEESQDSSDSIGSSQKAHGILARRPSYRKILKDLSSEDTRGRKGDGENSGVSAAVTSMSVPTPIYQTSSGQYIAIAPNGALQLASPGTDGVQGLQTLTMTNSGSTQQGTTILQYAQTSDGQQILVPSNQVVVQTASGDMQTYQIRTTPSATSLPQTVVMTSPVTLTSQTTKTDDPQLKREIRLMKNREAARECRRKKKEYVKCLENRVAVLENQNKTLIEELKTLKDLYSNKSV | binds

Molecular target: p65(wt)-HA-miniTurbo (human) (UniProt Q04206)
Assay: proximity labelling
Remark: another data set of the same source

Row | Molecule | binding
12 | IRAK1 (from UniProt P51617 1-712) | binds
13 | HDAC2 (from UniProt Q92769 1-488) | binds
14 | microphthalmia-associated transcription factor (MITF) (from UniProt O75030 1-526) | binds
15 | transcription factor E3 (TFE3) (from UniProt P19532 1-575) | binds
16 | NCOA6 (from UniProt Q14686 1-2063) | binds
17 | DPF1 (from UniProt Q92782 1-387) | binds
18 | CEBPA (from UniProt P49715 1-358) | binds
19 | TIP60 (KAT5) (from UniProt Q92993 1-513) | binds
20 | HDAC1 (from UniProt Q13547 1-482) | binds
21 | PAXIP1 (from UniProt Q6ZW49 1-1069) | binds
22 | ZBTB7B (from UniProt O15156 1-539) | binds
23 | MED15 (from UniProt Q96RN5 1-788) | binds
24 | JUN (from UniProt P05412 1-331) | binds
25 | KAT2A (from UniProt Q92830 1-837) | binds
26 | PAGR1 (from UniProt Q9BTK6 1-254) | binds
27 | DPF2 (from UniProt Q92785 1-391) | binds
28 | ZBTB7A (from UniProt O95365 1-584) | binds

Results are given in words; binding and its absence hold for the method and conditions named. Binding seen in cells or lysates may run through a third protein. Here binding means that the protein was enriched with, or labelled near, the bait; the list need not be complete.
